Laboratory results taken from patent US20220193138A1.
No constants are given. Whether binding was seen depends on the method and setting. Some entries that bind do so weakly or less than the wild type. Sequences can lack the tags named with a protein.

Legend:
[1] = target: T1, biotinylated human CD73 recombinant protein (human) (UniProt P21589); experiment: flow cytometry; biotinylated CD73 on engineered NK cells, detected with PE-labeled streptavidin
T1 sequence (biotinylated (site not stated), looked up): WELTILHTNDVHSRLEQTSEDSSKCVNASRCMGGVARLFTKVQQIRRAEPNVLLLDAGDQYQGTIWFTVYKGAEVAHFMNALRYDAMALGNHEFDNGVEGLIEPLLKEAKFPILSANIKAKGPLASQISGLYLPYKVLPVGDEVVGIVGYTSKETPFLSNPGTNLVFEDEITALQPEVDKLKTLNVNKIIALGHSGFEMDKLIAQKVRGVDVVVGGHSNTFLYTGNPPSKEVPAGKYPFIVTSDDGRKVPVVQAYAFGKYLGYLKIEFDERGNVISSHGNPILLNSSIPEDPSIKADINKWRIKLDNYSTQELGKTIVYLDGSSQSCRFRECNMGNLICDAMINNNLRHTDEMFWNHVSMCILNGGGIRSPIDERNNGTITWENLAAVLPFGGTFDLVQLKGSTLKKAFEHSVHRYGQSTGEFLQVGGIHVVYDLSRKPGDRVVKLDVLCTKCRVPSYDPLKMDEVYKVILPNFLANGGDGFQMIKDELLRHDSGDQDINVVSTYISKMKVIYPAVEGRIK

[2] = target: T1, biotinylated human CD73 recombinant protein (human); experiment: flow cytometry; biotinylated CD73 on engineered NK cells, detected with PE-labeled streptavidin (FIG. 5, subpart B)

binding [1]: binds
binding [2]: binds
B1: CD73.FcγRIIIa construct (CD73 scFv-FcγRIIIa fusion protein) expressed on engineered human NK cells (protein)
chain: EVQLLESGGGLVQPGGSLRLSCAASGFTFSSYAYSWVRQAPGKGLEWVSAISGSGGRTYYADSVKGRFTISRDNSKNTLYLQMNSLRAEDTAVYYCARLGYGRVDEWGRGTLVTVSSGGGGSGGGGSGGGGSQSVLTQPPSASGTPGQRVTISCSGSLSNIGRNPVNWYQQLPGTAPKLLIYLDNLRLSGVPDRFSGSKSGTSASLAISGLQSEDEADYYCATWDDSHPGWTFGGGTKLTVLITQGLAVSTISSFFPPGYQVSFCLVMVLLFAVDTGLYFSVKTNIRSSTRDWKDHKFKWRKDPQDK
